Results: PubChem BioAssay AID493014 (National Center for Advancing Translational Sciences (NCATS), 2011)
Hit rate of the full screen: of about 340,000 compounds, about 170 (0.05%) were called active. The shares of active, inactive and inconclusive entries below differ from those in the screen. The call rests on the fitted dose curve; in most records, active means well fitted inhibition curve with a large enough effect in the signal ratio, with a control signal flat (not every such curve was filed as active); inconclusive means small, poorly fitted or top-dose-only effect, or effect the other way, or a change in a side signal; inactive means flat fitted curve, though single readings scatter; the % refers to the signal ratio. Potencies beside an inconclusive call are fits to weak or partial responses and may not hold up.

Experiment: qHTS Assay to Find Inhibitors of Chronic Active B-Cell Receptor Signaling;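 on activity change, negative = inhibition: plate controls were basal doxycycline-induced cells for no effect and cells given 10 µM MG132 for full effect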
Conditions: ABC-DLBCL IkBa-CBG/CBR reporter, luminescence ratio (green luciferase fused to IkBa over red control in TMD8 lymphoma cells), 4 h; activity change, negative = inhibition: at 46.1 µM (top of the series)
How it was run: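 Cell line TMD8 (human ABC DLBCL), stably expressing tet-inducible CBG68-IkBa fusion and CBR; IMDM/0.5% FBS; cpd up to 46 uM; dox induction, 4 h, 37C/5% CO2; dual luminescence; green/red ratio; MG132 control.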
Potency means the concentration at half of the fitted maximal effect.

Compound | Potency | activity change, negative = inhibition
Cc1cccc(-c2nnc(NC(=O)c3ccco3)s2)c1 | inconclusive: 7.94 µM [falling, partial curve] | –
O=C(NC(=S)N1CCN(c2ccccc2)CC1)c1ccccc1 | – | inconclusive: 0.834%
CC(C)CC(NC(=O)OC(C)(C)C)C(=O)NCc1ccccc1 (stereo not given) | – | inconclusive: 9.47%
Cc1ccc(NC(=O)N(C)c2ccccc2)cc1 | – | inconclusive: 3.89%
O=[N+]([O-])c1ccccc1N/N=C/c1cccc(O)c1O | inconclusive: 12.6 µM [falling, partial curve] | –
COc1ccc(-c2nnc(NC(=O)c3ccc4c(c3)OCCO4)o2)cc1 | – | inconclusive: -16.3%
CCC(CC)NCc1ccc2c(c1)c1ccccc1n2CC | inconclusive: 11.2 µM [falling, partial curve, poor fit] | –
Cc1ccc(C)c(CS(=O)(=O)c2cn(CC(=O)N3CCC(C)CC3)c3ccccc23)c1 | – | inconclusive: -1.54%
Cc1cc(C)c(-c2csc(NC(=O)CCCc3nc4ccccc4c(=O)[nH]3)n2)c(C)c1 | inconclusive: 20.6 µM [rising, partial curve, poor fit] | –
N=C1SCC(=O)N1c1ncc(Cc2ccccc2Cl)s1 | inconclusive: 10 µM [falling, partial curve, poor fit] | –
CCOC(=O)Cc1cc(=O)n2[nH]c(-c3ccc(Cl)cc3)cc2n1 | inconclusive: 6.51 µM [falling, single point] | –
OC[C@@H]1[C@@H](c2ccc(F)cc2)C(c2ccccc2)=NN1c1ccccc1 | – | inactive
Cc1ccccc1/C=N/n1c(-c2cc(-c3ccccc3)n[nH]2)n[nH]c1=S | – | inconclusive: 16.6%
Cc1csc(CNc2ncnc3ccc(-c4ccc5c(c4)OCCO5)cc23)c1 | inconclusive: 23.1 µM [falling, single point] | –
CC(/C=C/c1ccccc1)=N\NC(=S)NC(C)C | – | inconclusive: -13.6%
Cc1ccc(NC(=O)C2CCC(CNc3c(N4CCC(C)CC4)c(=O)c3=O)CC2)cc1F (stereo not given) | – | inconclusive: 0.0919%
O=C(NCc1ccc2c(c1)OCO2)C1CCC(CNS(=O)(=O)c2cccc3nsnc23)CC1 (stereo not given) | – | inactive
CC1CN(S(=O)(=O)c2ccc(C(=O)Nc3nnc(-c4ccccn4)o3)cc2)CC(C)O1 (stereo not given) | – | inactive
Cn1cnnc1Sc1nc2ccccc2nc1NS(=O)(=O)c1ccccc1 | – | inactive
COc1ccccc1-c1nc(-c2ccccc2)nc(N2CCN(C)CC2)c1C#N | – | inactive
COc1c(Cl)cc(C(=O)Nc2ccccc2C(=O)O)cc1Cl | inconclusive: 5.62 µM [rising, single point] | –
O=C1C2CC=CCC2C(=O)N1c1n[nH]c(Cc2ccccc2)n1 (stereo not given) | – | inactive
CC(=O)Nc1ccc(S(=O)(=O)Nc2nc3n(n2)C(c2ccccc2)C=C(c2ccc(Cl)cc2)N3)cc1 (stereo not given) | – | inactive
Cc1cc(C(=O)N/N=C/c2c[nH]c3ccccc23)c(C)o1 | inconclusive: 23.1 µM [falling, partial curve] | –
O=C(NCc1ccc2c(c1)OCO2)c1ccc(NS(=O)(=O)c2ccc3c(c2)OCCO3)cc1 | – | inactive
CCCOC(=O)c1c(NC(=O)C2CCCO2)sc(C(=O)OC)c1C (stereo not given) | – | inconclusive: -1.57%
Cc1cc(C(C)(C)C)ccc1OCCn1ccnc1 | inconclusive: 10.3 µM [rising, partial curve, poor fit] | –

Part of the list above, in CSV form.
Compound,Potency,"activity change, negative = inhibition"
Cc1ccc(NC(=O)N(C)c2ccccc2)cc1,–,inconclusive: 3.89%
O=[N+]([O-])c1ccccc1N/N=C/c1cccc(O)c1O,"inconclusive: 12.6 µM [falling, partial curve]",–
COc1ccc(-c2nnc(NC(=O)c3ccc4c(c3)OCCO4)o2)cc1,–,inconclusive: -16.3%
CCC(CC)NCc1ccc2c(c1)c1ccccc1n2CC,"inconclusive: 11.2 µM [falling, partial curve, poor fit]",–
Cc1ccc(C)c(CS(=O)(=O)c2cn(CC(=O)N3CCC(C)CC3)c3ccccc23)c1,–,inconclusive: -1.54%
Cc1cc(C)c(-c2csc(NC(=O)CCCc3nc4ccccc4c(=O)[nH]3)n2)c(C)c1,"inconclusive: 20.6 µM [rising, partial curve, poor fit]",–
N=C1SCC(=O)N1c1ncc(Cc2ccccc2Cl)s1,"inconclusive: 10 µM [falling, partial curve, poor fit]",–
CCOC(=O)Cc1cc(=O)n2[nH]c(-c3ccc(Cl)cc3)cc2n1,"inconclusive: 6.51 µM [falling, single point]",–
OC[C@@H]1[C@@H](c2ccc(F)cc2)C(c2ccccc2)=NN1c1ccccc1,–,inactive
Cc1ccccc1/C=N/n1c(-c2cc(-c3ccccc3)n[nH]2)n[nH]c1=S,–,inconclusive: 16.6%
Cc1csc(CNc2ncnc3ccc(-c4ccc5c(c4)OCCO5)cc23)c1,"inconclusive: 23.1 µM [falling, single point]",–
CC(/C=C/c1ccccc1)=N\NC(=S)NC(C)C,–,inconclusive: -13.6%
Cc1ccc(NC(=O)C2CCC(CNc3c(N4CCC(C)CC4)c(=O)c3=O)CC2)cc1F (stereo not given),–,inconclusive: 0.0919%
O=C(NCc1ccc2c(c1)OCO2)C1CCC(CNS(=O)(=O)c2cccc3nsnc23)CC1 (stereo not given),–,inactive
CC1CN(S(=O)(=O)c2ccc(C(=O)Nc3nnc(-c4ccccn4)o3)cc2)CC(C)O1 (stereo not given),–,inactive
Cn1cnnc1Sc1nc2ccccc2nc1NS(=O)(=O)c1ccccc1,–,inactive
COc1ccccc1-c1nc(-c2ccccc2)nc(N2CCN(C)CC2)c1C#N,–,inactive
COc1c(Cl)cc(C(=O)Nc2ccccc2C(=O)O)cc1Cl,"inconclusive: 5.62 µM [rising, single point]",–

(further entries)

Compound | Potency | activity change, negative = inhibition
COc1ccc(/C(O)=C2\C(=O)C(=O)N(c3cc(C)on3)C2c2ccccc2OC)cc1 (stereo not given) | – | inconclusive: 14.2%
O=C(Nc1ccccc1N(C(=O)c1ccco1)S(=O)(=O)c1cccs1)c1ccco1 | inconclusive: 23.1 µM [falling, partial curve] | –
CCOC(=O)N1CCC(NC(=O)c2cc(-c3ccc(OC)cc3)nc3ccccc23)CC1 | – | inactive
COC(=O)c1cccc(Nc2nc3ccccc3nc2C)c1 | – | inconclusive: 2.33%
O=C(COc1ccc2c(C(F)(F)F)cc(=O)oc2c1)Nc1ccc2c(c1)OCCO2 | – | inconclusive: 3.15%
CC(C)c1ccc(/C=C/C(=O)NCCC2=CCCCC2)cc1 | – | inconclusive: 16.3%
CCc1ccc(C2NC(=S)NC3=C2C(=O)N(c2ccccc2OC)C(c2ccc(CC)cc2)N3)cc1 (stereo not given) | – | inconclusive: 1.67%
S=c1[nH]c(-c2ccccc2)cs1 | – | inactive
C=CCn1c(SCC(=O)NC2CCS(=O)(=O)C2)nnc1-c1cc2c(s1)CCC(CC)C2 (stereo not given) | – | inconclusive: -3.97%
CCN1CCN(C(=S)NC(=O)c2cccc(Br)c2)CC1 | – | inconclusive: -24.6%
CCOc1cccc(NC(=O)c2cccc(F)c2)c1 | inconclusive: 15.8 µM [falling, partial curve, poor fit] | –
COc1ccc(N2CCN(C(=O)COC(=O)c3oc4ccc(OC)cc4c3C)CC2)cc1 | – | inconclusive: 17.4%
O=C(CSc1nc(-c2ccccc2)c(-c2ccccc2)[nH]1)Nc1nccs1 | – | inconclusive: 14.4%
O=C(CN1CCN(Cc2ccccc2F)CC1)Nc1ccccc1Cl | – | inactive
CCOc1ccc2nc(NC(=O)c3ccoc3C)sc2c1 | inconclusive: 35.5 µM [falling, single point] | –
CS(=O)(=O)N1CCC(Oc2cccc(C(=O)NCCCOc3cccnc3)c2)CC1 | – | inconclusive: -20.3%
CN(CCC#N)C(=O)COC(=O)c1c2c(nc3ccccc13)/C(=C/c1ccco1)CC2 | inconclusive: 13 µM [rising, partial curve, poor fit] | –
Clc1ccc(OCc2cn3ccccc3n2)c2ncccc12 | inconclusive: 22.4 µM [falling, partial curve] | –
O=C(Nc1cccc([N+](=O)[O-])c1)ONC1=NCCCCC1 | – | inconclusive: 1.02%
Cc1c(C(=O)N2CC(C(=O)N3CCCCC3)Oc3ccccc32)oc2ccccc12 (stereo not given) | – | inactive
CC1C/C(=N/NC(=O)c2cccs2)CC(C)(C)C1 (stereo not given) | inconclusive: 29.1 µM [falling, partial curve] | –
CN1CCN(c2ncnc3sc(-c4ccccc4)cc23)CC1 | – | inconclusive: -20%
CCc1ccc(O)c(N=Cc2cccc(C)c2O)c1 | – | inconclusive: 11.5%
COc1ccc(S(=O)(=O)NNC(=S)NCCc2ccccc2)c(OC)c1 | – | inconclusive: 6.57%
COc1ccc(Cl)cc1NC(=O)Cn1nnc(C(=O)NCc2ccc3c(c2)OCO3)c1N | – | inconclusive: 9.23%
CCCOc1ccc(NC2=CC(=O)CC(C)(C)C2)cc1 | – | inconclusive: -0.0789%
CCN(CC)CCOC(=O)c1ccc(NC(=O)c2cc3cccc(OC)c3oc2=O)cc1 | – | inconclusive: 317%

Compound | Potency | activity change, negative = inhibition
O=C(CC(C(=O)O)c1ccccc1)c1cccs1 (stereo not given) | – | inactive
CC(C)(C)OC(=O)NCCc1nnc(SCC(=O)Nc2ccc(Br)cc2)o1 | – | inconclusive: -15.5%
CCOC(=O)C(=O)N=Nc1c(O)[nH]c2ccccc12 | – | inactive
C/C(=N/NC(=O)c1ccoc1C)c1ccc(NC(=O)c2ccncc2)cc1 | inconclusive: 29.1 µM [rising, single point] | –
CC1(C)CCC(=O)N2CC[C@H]3C[C@H](OC(=O)Nc4ccc(Br)cc4)C[C@@H]1[C@H]32 | inconclusive: 0.282 µM [rising, full curve, poor fit] | –
COc1cc(/C=C2/C(=O)NN(c3cccc(C)c3)C2=O)cc([N+](=O)[O-])c1O | – | inactive
Cc1ccc2nc(NC(=O)c3ccc(OCC4CCCO4)cc3)sc2c1 (stereo not given) | inconclusive: 9.2 µM [falling, partial curve] | –
c1cnc(N2CCN(Cc3ccc4c(c3)OCO4)CC2)nc1 | – | inconclusive: -6.83%
O=C(O)CC(Sc1n[nH]c(=S)s1)C(=O)O (stereo not given) | – | inactive
Cc1[nH]nc2c1/C(=N/O)CC(c1ccccc1)C2 (stereo not given) | – | inconclusive: 3.04%
COc1ccc(-c2nnc(SCC(=O)Nc3ccc4c(c3)OCCO4)n2N)cc1OC | – | inactive
O=C(C[n+]1cccc(C(=O)N/N=C/c2cccc([N+](=O)[O-])c2)c1)c1ccccc1 | – | inactive
CCN(C(=O)CSc1nnc(C)c(=O)[nH]1)c1cccc2ccccc12 | – | inactive
CNC(=O)c1ccc(Nc2nnc(-c3ccc(C)c(S(=O)(=O)NCC4CCCO4)c3)c3ccccc23)cc1 (stereo not given) | inconclusive: 14.6 µM [falling, single point] | –
COC(=O)c1c(-c2ccsc2)sc2ccc(-c3cc(OC)c(OC)c(OC)c3)cc12 | – | inactive
CCOC(=O)N1CCN(C(=O)CN(c2ccc3c(c2)OCO3)S(C)(=O)=O)CC1 | – | inconclusive: 9.6%
CNC(=O)c1c(NC(=O)C2=COCCO2)sc2c1CCCC2 | – | inconclusive: -1.03%
CCCCCCCNC1=CC(=O)CC(c2ccco2)C1 (stereo not given) | – | inconclusive: 20.7%
OCCN(CCO)CC(O)COc1ccc(C23CC4CC(CC(C4)C2)C3)cc1 (stereo not given) | – | inactive
COc1ccc(S(=O)(=O)NCCc2sc(-c3cccc(F)c3)nc2C)cc1 | inconclusive: 8.91 µM [rising, partial curve, poor fit] | –
Cc1ccc(C(=O)O/N=C/c2c(C(F)(F)F)nn(C)c2Sc2ccc(Cl)cc2)cc1 | – | inconclusive: -68%
FC(F)(F)c1cccc(OCC2CNC(=S)O2)c1 (stereo not given) | – | inconclusive: -0.848%
O=C(NCCc1ccccc1)C(=S)N1CCCCC1 | – | inconclusive: 10.1%
CC(/C=C/c1ccccc1)=N/O | – | inactive
COc1ccc(/C=C2/SC(=S)N(CCCC(=O)Nc3ccc(O)cc3)C2=O)cc1 | inconclusive: 35.5 µM [rising, partial curve] | –
O=C(CCn1c(=O)[nH]c2ccccc2c1=O)N1CCN(c2cccc(C(F)(F)F)c2)CC1 | – | inconclusive: 0.759%
